Experimental data published in PubChem BioAssay AID1671190 (National Center for Advancing Translational Sciences (NCATS), 2021).
Screen size: about 580,000 compounds; about 6,100 (1.1%) were called active. The inconclusive results got no clear call from the source; some entries with a clear call stand among them for comparison. Calls come from the whole dose curve; as a rule, active = well fitted inhibition curve with a large enough effect; inconclusive = small, poorly fitted or top-dose-only effect, or another doubt; inactive = no such curve, though single readings can be large or run the other way. Potencies beside an inconclusive call are fits to weak or partial responses and may not hold up.

Sequences of proteins named here, by UniProt entry; tags and fusion partners are left off. A change or cut given only in a name is not applied to a line headed by its entry.
UniProt P18054: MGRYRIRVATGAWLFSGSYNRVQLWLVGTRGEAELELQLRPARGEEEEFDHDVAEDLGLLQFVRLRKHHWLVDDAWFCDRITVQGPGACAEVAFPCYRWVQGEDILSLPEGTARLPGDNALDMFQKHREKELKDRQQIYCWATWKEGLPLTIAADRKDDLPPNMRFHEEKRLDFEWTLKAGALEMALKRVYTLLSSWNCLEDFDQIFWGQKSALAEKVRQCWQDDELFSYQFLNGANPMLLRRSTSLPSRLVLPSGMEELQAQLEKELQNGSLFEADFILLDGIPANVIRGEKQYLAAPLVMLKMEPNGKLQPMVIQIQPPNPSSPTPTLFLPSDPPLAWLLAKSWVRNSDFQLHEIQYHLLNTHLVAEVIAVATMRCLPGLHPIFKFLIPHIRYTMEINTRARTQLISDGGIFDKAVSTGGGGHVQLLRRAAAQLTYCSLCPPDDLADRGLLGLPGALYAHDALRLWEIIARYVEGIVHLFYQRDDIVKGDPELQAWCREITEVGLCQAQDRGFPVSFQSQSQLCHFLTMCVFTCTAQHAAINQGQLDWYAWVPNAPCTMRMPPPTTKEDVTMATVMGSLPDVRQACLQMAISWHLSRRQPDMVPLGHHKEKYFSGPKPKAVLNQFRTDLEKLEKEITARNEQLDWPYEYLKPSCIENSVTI

Target: Polyunsaturated fatty acid lipoxygenase ALOX12 (Homo sapiens) (UniProt P18054)
Assay: Primary qHTS assay for inhibitors of human arachidonate 12S-lipoxygenase (ALOX12): Round 2
Details: purified 12hLO, xylenol orange hydroperoxide absorbance; activity change, negative = inhibition: at 108 µM (top of the series) unless noted
How it was run: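 Purified human 12hLO at 150 nM in 25 mM Hepes, 0.01% Triton X-100, pH 7.0, preincubated 15 min at room temperature with compound. Reaction started with 40 uM arachidonic acid, 30 min at room temperature. Hydroperoxide measured by Fe-xylenol orange, 573/405 nm absorbance ratio.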
% is set by controls: 0 for no effect and ±100 for the full control effect; potency is the fitted concentration of half-maximal effect.

Row | Structure (SMILES) | activity change, negative = inhibition | Potency
1 | O=C(Cn1nc(C(=O)O)c2ccccc2c1=O)NC(=O)c1ccc(Cl)cc1 | inactive: 17.9% | 
2 | COc1cc(/C=C2\SC(=S)N(NC(=O)c3ccc(O)cc3)C2=O)ccc1O | inactive: 0% | 
3 | Oc1c(Br)cc(Br)cc1CNc1ccc(F)cc1 |  | inconclusive: 44.7 µM [inhibitor, partial curve]
4 | c1ccc(OCc2nnc3n2N=C(c2ccccc2)CS3)cc1 |  | inconclusive: 35.5 µM [inhibitor, partial curve, poor fit]
5 | CN1CCN(CC(=O)NC2CCCCC2)CC1 |  | inconclusive: 11.2 µM [inhibitor, full curve, poor fit]
6 | COCCNC(=S)c1ccc(Br)cc1 |  | inconclusive: 44.7 µM [inhibitor, partial curve, poor fit]
7 | C(=Cc1c[nH]c2ccccc12)c1ccc2ccccc2n1 |  | inconclusive: 44.7 µM [inhibitor, partial curve, poor fit]
8 | CCOC(=O)c1cnc(-n2nc(C)cc2C)[nH]c1=O | inactive: 58.2% | 
9 | Cc1ccc(C(C(=O)NCc2ccccc2)N(C(=O)c2csnn2)C2CC2)cc1 (stereo not drawn) |  | inconclusive: 126 µM [inhibitor, single point]
10 | COc1cccc(CNC(=O)CC(c2ccc(F)cc2)N2Cc3ccccc3C2=O)c1 (stereo not drawn) | inconclusive: -32.1% [inhibitor] | 
11 | C=CCSc1nc2ccccc2[nH]1 |  | inconclusive: 141 µM [inhibitor, single point]
12 | CCC(Sc1nc2cc3c(cc2c(=O)n1Cc1ccco1)OCO3)C(=O)Nc1cccc(OC)c1 (stereo not drawn) | inactive: 0% | 
13 | COc1ccc(C(=O)N2CCn3c(nnc3[C@@H]3C[C@@H](O)CN3C(C)C)C2)c(OC)c1 | inactive: 8.48% | 
14 | COC(=O)c1cn([C@H]2C[C@@H](C(=O)N3CCCCCC3)N(Cc3ccsc3)C2)nn1 |  | inconclusive: 100 µM [inhibitor, single point]
15 | COc1cc(C)ccc1OCC(=O)Nc1nnc(C2CC2)s1 |  | inconclusive: 79.4 µM [inhibitor, single point]
16 | Cc1nc2ccc(S(=O)(=O)CCC(=O)Nc3ccc(F)cc3C)cc2s1 |  | active: 22.4 µM
17 | COc1ccc(OC)c(S(=O)(=O)NCCO)c1 | inactive: 0% | 
18 | Cc1cccnc1NC(=O)C1c2ccccc2C(=O)N(Cc2ccccc2)C12CCCC2 (stereo not drawn) | inactive: 53.8% | 
19 | O=C(Nc1ccc(Cl)c(C(F)(F)F)c1)c1ccc(Cl)c(Cl)c1 | inactive: -0.796% | 
20 | O=S(=O)(Nc1nc2c(s1)CCCC2)c1ccc(Br)cc1 |  | inconclusive: 35.5 µM [inhibitor, partial curve]
21 | CCc1nnc(/N=C/c2c(O)n(-c3ccc(Cl)cn3)c(=O)c3ccccc23)s1 |  | inconclusive: 25.1 µM [inhibitor, partial curve, poor fit]
22 | CN1C(=O)c2cccc(N(C)C)c2C1=O | inactive: 5.06% | 
23 | O=C(O)CCNS(=O)(=O)c1ccc(C(=O)/C=C/c2ccccc2Cl)cc1 |  | inconclusive: 1.26 µM [inhibitor, full curve, poor fit]

Row | Structure (SMILES) | activity change, negative = inhibition | Potency
24 | O=C(Cc1ccc(F)cc1)Nc1nccs1 |  | inconclusive: 1.58 µM [inhibitor, partial curve, poor fit]
25 | COc1cccc(NC(=O)CSc2nc3ccc(NC(=O)c4ccco4)cc3s2)c1 |  | inconclusive: 100 µM [inhibitor, partial curve, poor fit]
26 | CCCc1c(C)nc(Nc2nc(C)c3ccc(C)cc3n2)[nH]c1=O | inactive: -5% | 
27 | COc1ccc(C(=O)N2CCC(n3cc(-c4nc(-c5ccccc5)no4)nn3)CC2)c(C)c1 |  | inconclusive: 25.1 µM [inhibitor, full curve]
28 | CN1C(C(=O)NCc2cccc(C(F)(F)F)c2)CC2Cn3c(nc4cc5ccccc5cc43)C21 (stereo not drawn) |  | inconclusive: 20 µM [inhibitor, partial curve]
29 | Cc1sc(NC(=S)NC(=O)c2ccc(C(C)(C)C)cc2)c(C#N)c1C |  | inconclusive: 12.6 µM [inhibitor, full curve, poor fit]
30 | CCc1ccc2oc(-c3ccc(OC)cc3)cc(=Nc3c(C)n(C)n(-c4ccccc4)c3=O)c2c1 |  | inconclusive: 50.1 µM [inhibitor, partial curve, poor fit]
31 | CCOc1ccc(NC(=O)Nc2nnc(N(CC)c3ccccc3)s2)cc1 |  | inconclusive: 39.8 µM [inhibitor, partial curve, poor fit]
32 | O=C(NCCc1c[nH]c2ccccc12)[C@@H]1C[C@H]2C(=O)NCCCCCCN(C(=O)c3ccco3)[C@H]2C1 |  | inconclusive: 22.4 µM [inhibitor, partial curve, poor fit]
33 | CCCCc1ccc(Nc2ncnc3c2cnn3-c2ccc(OC)cc2)cc1 |  | inconclusive: 44.7 µM [inhibitor, partial curve, poor fit]
34 | O=C(Nc1ccc2c(c1)OCO2)C1CCN(C(=O)c2n[nH]c(=O)c3ccccc23)CC1 | inactive: -4.9% | 
35 | Cc1cc(C)n2nc(C(=O)Nc3cc(F)ccc3C)nc2n1 |  | inconclusive: 100 µM [inhibitor, single point]
36 | OCCOc1ccccc1CN1CCCC(N2CCN(c3ccccc3)CC2)C1 (stereo not drawn) | inactive: 34.6% | 
37 | Cc1ccc(C)c(NC(=O)C2CCN(c3cc(C(F)(F)F)ncn3)CC2)c1 |  | inconclusive: 50.1 µM [inhibitor, single point]
38 | O=C(N[C@@H](Cc1ccc(O)cc1)C(=O)O)C(c1ccccc1)c1ccccc1 |  | inconclusive: 6.31 µM [inhibitor, full curve, poor fit]
39 | CN1CCN(NC(=O)CN2C(=O)/C(=C/c3ccccc3Cl)SC2=S)CC1 |  | inconclusive: 50.1 µM [inhibitor, partial curve, poor fit]
40 | C[C@@H](NC(=O)c1cccnc1)c1c(-c2ccc(F)cc2)noc1C(=O)O |  | active: 39.8 µM
41 | Cc1ccc(C2=NN(C(=O)Cn3nnc(-c4ccc(C(N)=O)cc4)n3)C(c3ccco3)C2)cc1 (stereo not drawn) |  | active: 28.2 µM
42 | CC(C)c1ccccc1NC(=O)c1cc(Cl)ccc1F | inactive: -26.5% | 
43 | CC1(C)CN(Cc2ccccc2)C(=O)[C@H]1CC(=O)Nc1ccc(Br)cc1 |  | inconclusive: 89.1 µM [inhibitor, single point]
44 | CSc1ccc(CN2CCN(CC=C(C)C)C(CCO)C2)cc1 (stereo not drawn) | inactive: -8.68% | 
45 | COc1cc(/C=C(/C#N)C(=O)Nc2ccccc2)c(Br)cc1OCc1ccc(C(=O)O)cc1 | inactive: -1.55% | 
46 | COc1ccc(NC(=O)CN2C(=O)NC3(CCCCC3)C2=O)cc1Cl |  | inconclusive: 79.4 µM [inhibitor, single point]

Row | Structure (SMILES) | activity change, negative = inhibition | Potency
47 | CC1CCCN(S(=O)(=O)c2ccc3c(c2)c(=O)nc2ccc(Cl)cn23)C1 (stereo not drawn) | inactive: -21.9% | 
48 | CC(=O)Nc1c(-c2ccc(C)cc2)c(C)nn1-c1ccc(C(=O)NCc2ccco2)cc1 |  | inconclusive: 112 µM [inhibitor, partial curve, poor fit]
49 | CC(C)c1ccc(C(=O)N2CCC(n3c(=O)[nH]c4ccccc43)CC2)cc1 |  | inconclusive: 50.1 µM [inhibitor, partial curve, poor fit]
50 | COc1cc(C2C3=C(Nc4ncnn42)c2ccccc2CC3)cc(OC)c1OC (stereo not drawn) |  | inconclusive: 56.2 µM [inhibitor, partial curve, poor fit]
51 | Cc1cc(C)c2c(-n3cccc3)c(C(=O)NCCc3ccc(Cl)cc3)sc2n1 |  | inconclusive: 100 µM [inhibitor, partial curve, poor fit]
52 | O=S(=O)(c1ccc(Br)s1)N1CCC2(CC1)OCCO2 |  | inconclusive: 100 µM [inhibitor, single point]
53 | NCc1ccc2c3c1CCCN3CCC2 |  | inconclusive: 28.2 µM [inhibitor, single point]
54 | COC(=O)[C@@]1(Cc2ccc(OC)cc2)[C@@H]2C(=CC(=O)[C@H]2CC(=O)C(=O)N(C)C)CN1C(=O)c1ccccc1 |  | inconclusive: 89.1 µM [inhibitor, single point]
55 | O=c1c2c(n(Cc3cccnc3)n1CCc1ccccc1)CN(CC1CCOC1)CC2 (stereo not drawn) | inactive: -7.61% [at 176 µM] | 
56 | O=C(Nc1ccccc1)c1ccccc1N=Cc1ccccc1O | inconclusive: -30.5% [inhibitor] | 
57 | COCCCNc1nc2ccccc2nc1NS(=O)(=O)c1cccc(C)c1 |  | inconclusive: 44.7 µM [inhibitor, partial curve, poor fit]
58 | Cc1cc(NC(=O)c2cnn3c(C(F)(F)F)cc(-c4ccccc4)nc23)no1 | inactive: -4.98% [at 57.4 µM] | 
59 | COc1ncnc2c1oc1nc(C)c3c(c12)CC(C)(C)OC3 |  | inconclusive: 100 µM [inhibitor, partial curve, poor fit]
60 | Cc1cccc(N2CCN(C(=O)c3ccccc3OCc3c(C)noc3C)CC2)c1C |  | inconclusive: 112 µM [inhibitor, single point]
61 | CCc1ccc2c(c1)C(O)(CC(=O)c1ccc(Br)cc1)C(=O)N2 (stereo not drawn) |  | inconclusive: 50.1 µM [inhibitor, single point]
62 | CCNc1c(NC(=O)Nc2ccccc2)c(=O)oc2ccccc12 | inactive: -13.8% | 
63 | C=Cc1ccc(CN2C(=O)N(c3ccc(OCC)cc3)S(=O)(=O)c3ccccc32)cc1 |  | inconclusive: 2 µM [inhibitor, full curve, poor fit]
64 | Oc1ccc(O)c(C2C[C@@H]3CC[C@H]2C3)c1 (stereo partly drawn) |  | inconclusive: 2 µM [inhibitor, full curve, poor fit]
65 | Fc1ccc(Nc2nnc(C(F)(F)F)s2)cc1Cl |  | inconclusive: 44.7 µM [inhibitor, partial curve, poor fit]
66 | CN1C(=O)CS(=O)C12CCN(C(=O)C1(c3ccccc3)CC1)CC2 (stereo not drawn) | inactive: 6.03% | 
67 | CCN(CCCNC(=O)c1cc2c(=O)n(CC)c3ccccc3c2s1)c1cccc(C)c1 | inactive: -11.3% | 
68 | N#Cc1ccc(Oc2cccc3cccnc23)cc1C#N |  | inconclusive: 70.8 µM [inhibitor, partial curve, poor fit]

Five structures out of the list, arranged by SMILES length, low to high.
Row | Structure (SMILES) | activity change, negative = inhibition | Potency
64 | Oc1ccc(O)c(C2C[C@@H]3CC[C@H]2C3)c1 (stereo partly drawn) |  | inconclusive: 2 µM [inhibitor, full curve, poor fit]
59 | COc1ncnc2c1oc1nc(C)c3c(c12)CC(C)(C)OC3 |  | inconclusive: 100 µM [inhibitor, partial curve, poor fit]
60 | Cc1cccc(N2CCN(C(=O)c3ccccc3OCc3c(C)noc3C)CC2)c1C |  | inconclusive: 112 µM [inhibitor, single point]
58 | Cc1cc(NC(=O)c2cnn3c(C(F)(F)F)cc(-c4ccccc4)nc23)no1 | inactive: -4.98% [at 57.4 µM] | 
54 | COC(=O)[C@@]1(Cc2ccc(OC)cc2)[C@@H]2C(=CC(=O)[C@H]2CC(=O)C(=O)N(C)C)CN1C(=O)c1ccccc1 |  | inconclusive: 89.1 µM [inhibitor, single point]
